From patent US20120071526A1, “COMPOUNDS FOR THE TREATMENT OF METABOLIC DISORDERS” (WELLSTAT THERAPEUTICS CORPORATION, priority 2006, published 2012)
For at least one compound, name, drawing or mass did not settle the structure.

Test system: db/db mice
Experiment: Antidiabetic effects in db/db mice, second experiment (comparison with rosiglitazone)
Type: in vivo
Conditions: male db/db mice, after 8 weeks of daily oral treatment, compared to vehicle-treated controls; compound 150 mg/kg, rosiglitazone 20 mg/kg

Compound: CN(CCOc1ccc(CC2SC(=O)NC2=O)cc1)c1ccccn1 (centres unmarked) [rosiglitazone]
- blood glucose: significantly lower
- triglycerides: significantly lower
